Results as given in patent US20240301319A1, “PERFUMING COMPOSITIONS” (FIRMNICH SA, priority 2017, published 2024).
Counter-ions that a name gives are not always drawn.

Assay: Odor threshold and odor value of perfuming compounds (Tables 4 to 10)
Conditions: Table 6, perfuming compounds having a fruity note

First: CC(OC=O)C1CCCC(C)(C)C1 (stereo not shown)
Second: C=C1CCCC(C)(C)C1C(=O)OC (racemic)
The “Odor Threshold” value of the first is higher: 2.05E−01 μg/l air for the first, 5.78E−04 μg/l air for the second.

Compared with `C=CC(C)=CCC=C(C)C`, `C=CC(=C)CCC=C(C)C` is higher in “Odor Threshold” value: 2.57E−02 μg/l air for the first, 4.12E−02 μg/l air for the second.

First: CCOC(=O)C1=C(C)C=CCC1(C)C
Second: CCOC(=O)C(C)C [ETHYL ISOBUTYRATE]
The “Odor Threshold” value of the first is higher: 4.40E−03 μg/l air for the first, 1.14E−04 μg/l air for the second.

Going from `CCOC(=O)CC(C)=O` to `CCCC(=O)OCC` [ETHYL BUTANOATE], the “Odor Threshold” value falls from 5.83E−02 μg/l air to 3.68E−04 μg/l air.

First: CCCOC(=O)[C@H](C)OC(C)(C)CC
Second: CC(=O)OCCC(C)CC(C)(C)C (stereo not shown) [3,5,5-TRIMETHYLHEXYL ACETATE]
The “Odor Threshold” value of the first is lower: 4.98E−01 μg/l air for the first, 1.28E+00 μg/l air for the second.

Compared with `CCCCCC1(C)CCC(C)(C)C1=O` (racemic), `CCCCCC1CCCC1=O` (racemic) [(+−)-2-pentylcyclopentanone] is lower in “Odor Threshold” value: 3.25E−02 μg/l air for the first, 1.28E−03 μg/l air for the second.

Compared with `CC1CC(C)(c2ccccc2)CO1` (racemic), `CC(O)c1ccccc1` (stereo not shown) [1-PHENYL-1-ETHANOL] is higher in “Odor Threshold” value: 5.04E−04 μg/l air for the first, 2.98E−01 μg/l air for the second.

Going from `CC(C)=CCCC(C)C=O` (racemic) to `CC(C)=CCCC(C)CCOC=O` (racemic) [(+−)-3,7-DIMETHYL-6-OCTENYL FORMATE], the “Odor Threshold” value rises from 2.11E−04 μg/l air to 1.72E−03 μg/l air.

Going from `C=CC(C)CC(=O)CC(C)C` (racemic) to `CC(C)CC(=O)O` [3-METHYLBUTANOIC ACID], the “Odor Threshold” value falls from 2.78E−01 μg/l air to 2.23E−04 μg/l air.

First: C=C(C)CC(C)OC(=O)C(C)C (racemic)
Second: CCC(C)C(=O)OC(C)C (racemic) [(+−)-ISOPROPYL 2-METHYLBUTANOATE]
The “Odor Threshold” value of the first is higher: 2.26E−01 μg/l air for the first, 8.42E−03 μg/l air for the second.

Compared with `C=C1CCCC(C)(C)C1C(=O)/C=C/C` (racemic), `CC1(C)C2CC[C@@]1(C)C(=O)C2` (single isomer, unassigned; (+)) is higher in “Odor Threshold” value: 3.73E−03 μg/l air for the first, 1.72E−01 μg/l air for the second.

Going from `C=C(C)CC(C(C)=O)C(=O)OCC` (racemic) to `CCOC(=O)C(C)CC` (racemic) [(+−)-ethyl 2-methylbutanoate], the “Odor Threshold” value falls from 3.64E−03 μg/l air to 1.26E−04 μg/l air.

Compared with `C=CC(C)(CCC=C(C)C)OC(C)=O` (racemic) [(+−)-1,5-DIMETHYL-1-VINYL-4-HEXENYL ACETATE], `C=CC(C)(O)CCC=C(C)C` (racemic) [(+−)-3,7-dimethyl-1,6-octadien-3-ol] is lower in “Odor Threshold” value: 7.40E−02 μg/l air for the first, 8.89E−05 μg/l air for the second.

Compared with `C=CC(CCCCC)OC(C)=O` (racemic) [(+−)-1-PENTYL-2-PROPENYL ACETATE], `CCCCCCOC(C)=O` [HEXYL ACETATE] is higher in “Odor Threshold” value: 4.84E−02 μg/l air for the first, 1.32E−01 μg/l air for the second.

Going from `CC(=O)OC(C)c1ccccc1` (racemic) [(+−)-1-PHENYLETHYL ACETATE] to `CC(=O)OCc1ccccc1` [benzyl acetate], the “Odor Threshold” value falls from 4.43E−02 μg/l air to 5.24E−03 μg/l air.

Compared with `CCCCCC(C#N)CCC` (racemic) [(+−)-2-propylheptanenitrile], `CCCCCC(=O)CC` [3-OCTANONE] is lower in “Odor Threshold” value: 7.83E−02 μg/l air for the first, 4.53E−02 μg/l air for the second.

Compared with `CCCC(S)CCOC(C)=O` (racemic) [(+−)-3-mercaptohexyl acetate], `CCCCOC(C)=O` [BUTYL ACETATE] is higher in “Odor Threshold” value: 2.72E−06 μg/l air for the first, 4.18E−01 μg/l air for the second.

Compared with `COCC(C)Cc1ccccc1` (racemic) [(+−)-(3-methoxy-2-methylpropyl)benzene], `CC(=O)OCCc1ccccc1` [2-PHENYLETHYL ACETATE] is lower in “Odor Threshold” value: 1.51E−02 μg/l air for the first, 2.14E−03 μg/l air for the second.

Compared with `CC/C=C\CCOC(=O)C(C)CC` (racemic) [(+−)-(Z)-3-HEXENYL 2-METHYLBUTANOATE], `CC/C=C\CCOC(=O)C(C)C` [(Z)-3-HEXENYL ISOBUTYRATE] is higher in “Odor Threshold” value: 1.96E−02 μg/l air for the first, 4.54E−02 μg/l air for the second.

First: CCCC(C)C(=O)OCC (racemic) [(+−)-ETHYL 2-METHYLPENTANOATE]
Second: CCCC(C)COC(=O)C(C)CCC (stereo not shown) [2-METHYLPENTYL 2-METHYLPENTANOATE]
The “Odor Threshold” value of the first is lower: 3.84E−05 μg/l air for the first, 2.41E−01 μg/l air for the second.

Compared with `CCCCC(CC)C(=O)OC` (racemic) [(+−)-methyl 2-ethylhexanoate], `CCCCCC(=O)OC` [METHYL HEXANOATE] is lower in “Odor Threshold” value: 1.74E−01 μg/l air for the first, 8.43E−02 μg/l air for the second.

Going from `C=C(C)C1CC=C(C)CC1` (single isomer, unassigned; (+)) [(+)-LIMONENE] to `C[C@@H]1CC[C@@H](C(C)(C)S)C(=O)C1` [(1R,4R)-8-MERCAPTO-3-P-MENTHANONE], the “Odor Threshold” value falls from 1.29E−01 μg/l air to 3.43E−05 μg/l air.

First: CC(=O)OC(C)(C)Cc1ccccc1 [1,1-DIMETHYL-2-PHENYLETHYL ACETATE]
Second: CC(=O)CCc1ccccc1 [4-PHENYL-2-BUTANONE]
The “Odor Threshold” value of the first is higher: 5.16E−02 μg/l air for the first, 2.22E−04 μg/l air for the second.

First: CC(=O)OC(CC(C)C)CC(C)C [1-ISOBUTYL-3-METHYLBUTYL ACETATE]
Second: CCOC(=O)/C(C)=C/C(C)C [ethyl (2E)-2,4-dimethyl-2-pentenoate]
The “Odor Threshold” value of the first is higher: 1.62E+00 μg/l air for the first, 9.55E−03 μg/l air for the second.

First: CCCc1ccc(OC)cc1 [1-METHOXY-4-PROPYLBENZENE]
Second: C/C=C/c1ccc(OC)cc1 [1-methoxy-4-[(1E)-1-propen-1-yl]benzene]
The “Odor Threshold” value of the first is lower: 5.37E−04 μg/l air for the first, 1.23E−03 μg/l air for the second.

Compared with `CC(=O)OCCC1CCCCC1` [2-CYCLOHEXYL ETHYL ACETATE], `CCCCCCCOC(C)=O` [heptyl acetate] is higher in “Odor Threshold” value: 4.49E−02 μg/l air for the first, 1.32E−01 μg/l air for the second.

Going from `CCCCCC(C)=O` [2-HEPTANONE] to `CCCCCCC(C)=O` [2-OCTANONE], the “Odor Threshold” value falls from 5.85E−02 μg/l air to 5.37E−02 μg/l air.

Compared with `OCCc1ccccc1` [2-PHENYLETHANOL], `O=COCCc1ccccc1` [2-PHENYLETHYL FORMATE] is higher in “Odor Threshold” value: 1.02E−04 μg/l air for the first, 8.34E−04 μg/l air for the second.

Going from `CC(C)(C)Cc1cccnc1` [3-(2,2-DIMETHYLPROPYL)PYRIDINE] to `COC(=O)Cc1ccccc1` [METHYL PHENYLACETATE], the “Odor Threshold” value falls from 2.82E−03 μg/l air to 3.21E−04 μg/l air.

First: CC(=O)OCC=C(C)C [3-methyl-2-buten-1-yl acetate]
Second: CC(=O)CCC=C(C)C [6-METHYL-5-HEPTEN-2-ONE]
The “Odor Threshold” value of the first is lower: 5.58E−02 μg/l air for the first, 1.06E−01 μg/l air for the second.

First: Cc1ccc(OC(=O)C(C)C)cc1 [4-METHYLPHENYL ISOBUTYRATE]
Second: CCOC(=O)Cc1ccccc1 [ETHYL PHENYLACETATE]
The “Odor Threshold” value of the first is lower: 1.66E−05 μg/l air for the first, 4.19E−04 μg/l air for the second.

First: CCC(=O)CC(C)CC (stereo not shown) [5-METHYL-3-HEPTANONE]
Second: CCCCCCOC(=O)C(C)C [hexyl 2-methylpropanoate]
The “Odor Threshold” value of the first is lower: 9.87E−02 μg/l air for the first, 7.15E−01 μg/l air for the second.

First: CCC/C=C/C=O [(2E)-2-HEXENAL]
Second: CCC/C=C/COC(C)=O [(E)-2-HEXENYL ACETATE]
The “Odor Threshold” value of the first is lower: 2.53E−03 μg/l air for the first, 2.08E−01 μg/l air for the second.

First: CC/C=C\CCOC(=O)C/C=C\CC [(3Z)-3-hexen-1-yl (3Z)-3-hexenoate]
Second: CC/C=C\CCOC(=O)CCC [(3Z)-3-hexen-1-yl butyrate]
The “Odor Threshold” value of the first is lower: 5.17E−02 μg/l air for the first, 7.85E−02 μg/l air for the second.

First: CC/C=C\CCOC(=O)OC [(3Z)-hex-3-en-1-yl methyl carbonate]
Second: CC/C=C\CCOC=O [(Z)-3-HEXENYL FORMATE]
The “Odor Threshold” value of the first is higher: 4.58E−02 μg/l air for the first, 2.11E−03 μg/l air for the second.

First: C=CCOC(=O)CCCCCC [ALLYL HEPTANOATE]
Second: C=CCOC(=O)CCCCC [ALLYL HEXANOATE]
The “Odor Threshold” value of the first is lower: 1.75E−02 μg/l air for the first, 4.58E−02 μg/l air for the second.

Going from `CCOC(=O)CC1(C)OCCO1` [ETHYL 2-METHYL-1,3-DIOXOLANE-2-ACETATE] to `CCCCCC(=O)OCC` [ETHYL HEXANOATE], the “Odor Threshold” value falls from 1.62E−03 μg/l air to 9.11E−04 μg/l air.

Compared with `CCCCCCC(=O)OCC` [ethyl heptanoate], `CCCCCCCCOC(C)=O` [octyl acetate] is higher in “Odor Threshold” value: 7.17E−03 μg/l air for the first, 1.76E−01 μg/l air for the second.

Going from `C/C=C(\C)C(=O)OCCCCCC` [hexyl (2E)-2-methyl-2-butenoate] to `CCCCCC/C=C/C(=O)OC` [methyl (2E)-2-nonenoate], the “Odor Threshold” value rises from 1.16E−02 μg/l air to 5.84E−02 μg/l air.

For `COC(=O)C=C1CCCC1` [methyl cyclopentylideneacetate], the “Odor Threshold” value was 2.80E−02 μg/l air.
